The nature of the data set: Dissolving and recrystallization behavior of active ingredient in 1,3-bis(1-pyrrolidonyl)butane (DHVP) test system. Conditions: heated. An excerpt: The ratios of the amounts can in principle be chosen without restriction and naturally depend essentially on the properties of the active ingredient. However, it is advisable to choose the concentration ranges in the test system so that they correspond to active ingredient contents typical of extruded forms, that is to say generally from 0.1 to 70, preferably 10 to 30% by weight of active ingredient, based on the total weight of the test system. However, it is also possible in the individual case to prepare solutions or dispersions with a concentration of 60% by weight or even higher. It is preferred to carry out test series with increasing active ingredient contents. The active ingredient(s) are weighed out, mixed with the appropriate amounts of DHVP and preferably stirred, normally with a typical laboratory magnetic stirrer at 5 to 200 rpm. […] The heating is preferably carried out so as to correspond approximately to the heating rate in a subsequent melt formulation, that is to say at 0.5 to 5° C./min. The test system is preferably heated to a maximum of 140° C. However, it is also possible in the individual case to heat to the boiling point of DHVP. The test system is then allowed to cool to room temperature.
The prepared test systems are assessed spectroscopically. […] The recrystallization behavior is also assessed. […]

In the case of `COC(=O)C1=C(C)NC(C)=C(C(=O)OC)C1c1ccccc1[N+](=O)[O-]` [Nifedipine], the “Sol. at (temperature at which solution forms)” value is “Sol. at 50 °C” (10% by weight in DHVP) and “Sol. at 50 °C” (30% by weight in DHVP).
